From EP4786487A1 (Peptidream Inc, priority 2023, dated 2025)

How the values were obtained:
[1] = general procedure: Fmoc solid-phase peptide synthesis; H-A-Trt(2-Cl) resin; HATU/DIEA; conditions: whole synthesis, UV 225 nm
[2] = general procedure: Fmoc solid-phase peptide synthesis; H-dc(Trt)-Trt(2-Cl) resin; Sieber amide resin; Cl-Trt(2-Cl) resin (Watanabe Chemical Industries); HATU/DIEA; conditions: UV 225 nm
[3] = general procedure: Fmoc solid-phase peptide synthesis; Sieber amide resin; HATU/DIEA; conditions: whole synthesis, UV 225 nm
[4] = general procedure: Fmoc solid-phase peptide synthesis; H-dc(Trt)-Trt(2-Cl) resin; HATU/DIEA; conditions: whole synthesis, UV 225 nm
[5] = general procedure: Fmoc solid-phase peptide synthesis; H-G-Trt(2-Cl) resin; HATU/DIEA; conditions: UV 225 nm

Substance	final purity (method not given) ([2]; whole synthesis) [%]	also measured
PEPTIDE1{A.A.[W6H1Ph4COO].Y.[MeF].I.[dP].[F3aao].[F4COO].R.[MeF].[Ano].[MeA].[MeF].[dA].[MeA]}$PEPTIDE1,PEPTIDE1,1:R1-16:R2$$$V2.0	–	final purity (method not given) [1]: 96.0%
PEPTIDE1{[CH2CO].[CeG].A.[W6H1Ph4COO].Y.[MeF].I.[dP].[F3aao].[F4COO].R.[MeF].[Ano].[MeDap].[MeF].[dC].[Pip4mAc].[am]}$PEPTIDE1,PEPTIDE1,1:R3-16:R3|PEPTIDE1,PEPTIDE1,2:R3-14:R3$$$V2.0	98.7	–
PEPTIDE1{[CH2CO].[CrpG].A.[W6H1Ph4COO].Y.[MeF].I.[dP].[F3aao].[F4COO].R.[MeF].[Ano].[MeA].[MeF].[dC].[Pip4mAc].[am]}$PEPTIDE1,PEPTIDE1,1:R3-16:R3$$$V2.0	98.3	–
PEPTIDE1{[CeG].A.[W6H1Ph4COO].Y.[MeF].I.[dP].[F3aao].[F4COO].R.[MeF].[Ano].[MeDap].[MeF].[dA].[MeA]}$PEPTIDE1,PEPTIDE1,1:R1-16:R2|PEPTIDE1,PEPTIDE1,1:R3-13:R3$$$V2.0	94.1	–
PEPTIDE1{[ClAcT].A.A.W.Y.[MeYap].I.[MeG].[F3aao].[F4COO].R.[MeF].[Ano].[MeA].[MeF].[dC_S].[pipzAc]}$PEPTIDE1,PEPTIDE1,1:R3-16:R3$$$V2.0	99.6	–
PEPTIDE1{[ClAcT].[CrpG].A.W.Y.[MeF].I.[MeA].[F3aao].[F4COO].R.[MeF].[Ano].[MeA].[MeF].[dC_S].[am]}$PEPTIDE1,PEPTIDE1,1:R3-16:R3$$$V2.0	–	final purity (method not given) [3]: 95.0%
PEPTIDE1{[ClAcT].[CrpG].A.W.Y.[MeF].I.[MeA].[F3aao].[F4COO].R.[MeF].[Ano].[MeA].[MeF].[dC_S]}$PEPTIDE1,PEPTIDE1,1:R3-16:R3$$$V2.0	–	final purity (method not given) [4]: 99.1%
PEPTIDE1{[ClAcT].[CrpG].A.W.Y.[MeF].I.[MeG].Y.[F4COO].R.[MeF].L.[MeA].[MeF].[dC_S]}$PEPTIDE1,PEPTIDE1,1:R3-16:R3$$$V2.0	–	final purity (method not given) [4]: 97.8%
PEPTIDE1{[CrpG].A.W.Y.[MeF].I.[MeA].[F3aao].[F4COO].R.[MeF].[Ano].[MeA].[MeF].[dA].[MeA]}$PEPTIDE1,PEPTIDE1,1:R1-16:R2$$$V2.0	–	final purity (method not given) [2]: 92.0%
PEPTIDE1{[CrpG].A.[W6H1Ph4COO].Y.[MeF].I.[dP].[F3aao].[F4COO].R.[MeF].[Ano].[MeA].[MeF].[dA].[MeA]}$PEPTIDE1,PEPTIDE1,1:R1-16:R2$$$V2.0	95.0	–
PEPTIDE1{[MeA].A.W.Y.[MeF].I.[MeA].[F3aao].[F4COO].R.[MeF].[Ano].[MeA].[MeF].G.[MeA]}$PEPTIDE1,PEPTIDE1,1:R1-16:R2$$$V2.0	–	final purity (method not given) [5]: 97.5%
PEPTIDE1{[MeHgl].A.[W6H1Ph4COO].Y.[MeF].I.[dP].[F3aao].[F4COO].R.[MeF4am].[Ano].[MeA].[MeF].[dA].[MeA]}$PEPTIDE1,PEPTIDE1,1:R1-16:R2|PEPTIDE1,PEPTIDE1,1:R3-11:R3$$$V2.0	92.9	–

Some peptides are written in HELM: one residue between dots, names in brackets for other building blocks, links after the first $.
